Data from publication doi:10.1101/2025.09.27.678968.
No constants are given. Whether binding was seen depends on the method and setting. Binding calls can cover weak binding; strength is not graded here. For part of these data: Where a sequence is shown, tags or fusion partners need not be part of it. Blank lines part the entries; values can stand above or below the molecule they belong to.

Legend:
Assay in all cases: pull-down
[1] = target: T1, MBP-tagged MEX3C, construct 1 (full-length) (H. sapiens) (UniProt Q5U5Q3)
T1 sequence: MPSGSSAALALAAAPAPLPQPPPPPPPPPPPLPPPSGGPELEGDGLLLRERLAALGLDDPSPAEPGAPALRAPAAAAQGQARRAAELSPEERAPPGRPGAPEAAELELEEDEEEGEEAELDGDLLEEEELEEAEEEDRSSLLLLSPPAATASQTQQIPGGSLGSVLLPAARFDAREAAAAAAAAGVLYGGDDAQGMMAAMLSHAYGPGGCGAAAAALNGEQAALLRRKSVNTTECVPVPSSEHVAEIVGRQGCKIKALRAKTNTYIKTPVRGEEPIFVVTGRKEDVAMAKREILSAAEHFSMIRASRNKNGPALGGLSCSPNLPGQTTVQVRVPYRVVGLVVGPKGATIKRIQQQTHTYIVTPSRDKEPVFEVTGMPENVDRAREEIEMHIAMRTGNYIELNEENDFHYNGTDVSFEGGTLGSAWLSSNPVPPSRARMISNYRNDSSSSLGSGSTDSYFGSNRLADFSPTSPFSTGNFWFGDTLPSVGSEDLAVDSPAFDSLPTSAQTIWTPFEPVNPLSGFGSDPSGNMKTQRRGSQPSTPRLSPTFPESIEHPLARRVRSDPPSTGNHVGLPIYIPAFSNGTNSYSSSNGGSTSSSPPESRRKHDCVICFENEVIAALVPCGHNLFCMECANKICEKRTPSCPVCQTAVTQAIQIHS

[2] = target: T2, MBP-MEX3C(418-600)-lipoyl (H. sapiens) (UniProt Q5U5Q3)
T2 sequence: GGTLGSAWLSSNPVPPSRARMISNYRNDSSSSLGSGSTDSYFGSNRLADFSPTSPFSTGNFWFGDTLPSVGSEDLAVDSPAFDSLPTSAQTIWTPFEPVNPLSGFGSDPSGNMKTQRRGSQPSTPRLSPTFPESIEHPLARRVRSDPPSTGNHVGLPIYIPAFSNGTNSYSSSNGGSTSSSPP

[3] = target: T3, MBP-tagged MEX3C(222-659), construct 3 (H. sapiens) (UniProt Q5U5Q3)
T3 sequence: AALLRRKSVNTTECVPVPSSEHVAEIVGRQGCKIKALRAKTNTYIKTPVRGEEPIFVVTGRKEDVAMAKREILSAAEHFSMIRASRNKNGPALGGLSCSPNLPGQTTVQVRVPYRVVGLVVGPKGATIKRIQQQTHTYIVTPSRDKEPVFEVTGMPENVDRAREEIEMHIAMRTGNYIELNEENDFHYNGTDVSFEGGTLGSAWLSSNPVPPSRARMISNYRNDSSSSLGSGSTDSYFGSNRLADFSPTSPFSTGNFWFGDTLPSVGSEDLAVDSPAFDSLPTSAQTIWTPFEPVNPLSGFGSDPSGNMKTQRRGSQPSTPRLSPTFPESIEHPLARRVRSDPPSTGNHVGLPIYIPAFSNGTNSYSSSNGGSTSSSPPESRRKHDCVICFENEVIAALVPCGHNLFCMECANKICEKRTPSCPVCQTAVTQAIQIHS

[4] = target: T4, MBP-MEX3C(222-600)-lipoyl (H. sapiens) (UniProt Q5U5Q3)
T4 sequence: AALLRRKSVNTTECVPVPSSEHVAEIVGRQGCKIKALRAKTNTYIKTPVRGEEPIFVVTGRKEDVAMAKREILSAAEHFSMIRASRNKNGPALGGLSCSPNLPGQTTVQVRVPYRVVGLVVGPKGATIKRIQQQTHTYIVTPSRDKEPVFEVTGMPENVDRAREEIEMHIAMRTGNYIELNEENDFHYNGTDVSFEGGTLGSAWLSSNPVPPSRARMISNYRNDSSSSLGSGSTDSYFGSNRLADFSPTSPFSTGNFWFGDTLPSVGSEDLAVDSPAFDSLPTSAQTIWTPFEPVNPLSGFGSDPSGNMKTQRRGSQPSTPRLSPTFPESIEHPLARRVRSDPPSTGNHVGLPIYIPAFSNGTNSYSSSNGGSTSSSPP

[5] = target: PAN2–PAN3^ΔN278-SII (H. sapiens)
[6] = target: PAN2^E980A–PAN3^ΔN278-SII (H. sapiens)

binding [1]: binds | binding [2]: binds | binding [3]: binds | binding [4]: binds
Molecule: PAN2–PAN3^ΔN278-SII (H. sapiens) (complex)

binding [5]: binds
B1: MEX3C (protein, UniProt Q5U5Q3 1-659)
chain: T1 sequence

binding [6]: binds
B2: MEX3B (protein, UniProt Q6ZN04 1-569)
chain: MPSSLFADLERNGSGGGGGGSSGGGETLDDQRALQLALDQLSLLGLDSDEGASLYDSEPRKKSVNMTECVPVPSSEHVAEIVGRQGCKIKALRAKTNTYIKTPVRGEEPVFVVTGRKEDVAMARREIISAAEHFSMIRASRNKNTALNGAVPGPPNLPGQTTIQVRVPYRVVGLVVGPKGATIKRIQQQTHTYIVTPSRDKEPVFEVTGMPENVDRAREEIEAHIALRTGGIIELTDENDFHANGTDVGFDLHHGSGGSGPGSLWSKPTPSITPTPGRKPFSSYRNDSSSSLGSASTDSYFGGGTSSSAAATQRLADYSPPSPALSFAHNGNNNNNGNGYTYTAGGEASVPSPDGCPELQPTFDPAPAPPPGAPLIWAQFERSPGGGPAAPVSSSCSSSASSSASSSSVVFPGGGASAPSNANLGLLVHRRLHPGTSCPRLSPPLHMAPGAGEHHLARRVRSDPGGGGLAYAAYANGLGAQLPGLQPSDTSGSSSSSSSSSSSSSSSSGLRRKGSRDCSVCFESEVIAALVPCGHNLFCMECANRICEKSEPECPVCHTAVTQAIRIFS
